Laboratory results: PubChem BioAssay AID1508597 (Cure First, 2020)

Test: 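Genes whose silencing sensitises or protects ovarian cancer cells against rucaparib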 (primary screen)
Cell system: human ovarian carcinoma lines grown from tumours: OCI-P5x (papillary serous) and OCI-C5x (clear cell)
Reagent: siRNA pool against human genes, 1.25 pmol siRNA per well
Duration: 72 h or 96 h, depending on the cell culture
Challenge: rucaparib 20 µM (about IC30) or vehicle, present until read-out
Detection: 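Luminescent ATP-based viability assay read 72 or 96 h after transfection, depending on culture, given as normalised percent viability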
Scale: viability, normalised: higher = more viable cells remaining
Call rule: 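a well counts as a hit if its normalised viability is under 80 percent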
Meaning of the calls: active = viability under 80%; inactive = viability 80% or more
In all, the deposit lists about 2,100 reagents; shown is a part drawn at random. 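Calls flag viability under 80% in either arm, not effects specific to rucaparib; the reference for percent is not stated.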 Not stated in the record: the 100% reference.

| gene | rucaparib or vehicle | cell line | technical replicate | viability, normalised (%) | Outcome |
| --- | --- | --- | --- | --- | --- |
| STK10 | Rucaparib | OCI-C5x (clear cell) | 1 | 50.6 | active |
| STK10 | Rucaparib | OCI-C5x (clear cell) | 2 | 55.8 | active |
| STK10 | Rucaparib | OCI-C5x (clear cell) | 3 | 42.8 | active |
| STK10 | Rucaparib | OCI-P5x (serous) | 1 | 53.9 | active |
| STK10 | Rucaparib | OCI-P5x (serous) | 2 | 51.8 | active |
| STK10 | Rucaparib | OCI-P5x (serous) | 3 | 75.6 | active |
| STK10 | Vehicle | OCI-C5x (clear cell) | 1 | 68.3 | active |
| STK10 | Vehicle | OCI-C5x (clear cell) | 2 | 55 | active |
| STK10 | Vehicle | OCI-C5x (clear cell) | 3 | 49.8 | active |
| STK10 | Vehicle | OCI-P5x (serous) | 1 | 43.9 | active |
| STK10 | Vehicle | OCI-P5x (serous) | 2 | 45.1 | active |
| STK10 | Vehicle | OCI-P5x (serous) | 3 | 58.3 | active |
| TTF2 | Rucaparib | OCI-C5x (clear cell) | 1 | 68.7 | active |
| TTF2 | Rucaparib | OCI-C5x (clear cell) | 2 | 57.9 | active |
| TTF2 | Rucaparib | OCI-C5x (clear cell) | 3 | 51.4 | active |
| TTF2 | Rucaparib | OCI-P5x (serous) | 1 | 72.3 | active |
| TTF2 | Rucaparib | OCI-P5x (serous) | 2 | 62.1 | active |
| TTF2 | Rucaparib | OCI-P5x (serous) | 3 | 61.2 | active |
| TTF2 | Vehicle | OCI-C5x (clear cell) | 1 | 59.2 | active |
| TTF2 | Vehicle | OCI-C5x (clear cell) | 2 | 71 | active |
| TTF2 | Vehicle | OCI-C5x (clear cell) | 3 | 74.5 | active |
| TTF2 | Vehicle | OCI-P5x (serous) | 1 | 71.9 | active |
| TTF2 | Vehicle | OCI-P5x (serous) | 2 | 79.6 | active |
| TTF2 | Vehicle | OCI-P5x (serous) | 3 | 84.3 | inactive |
| SMARCAD1 | Rucaparib | OCI-C5x (clear cell) | 1 | 47 | active |
| SMARCAD1 | Rucaparib | OCI-C5x (clear cell) | 2 | 42.7 | active |
| SMARCAD1 | Rucaparib | OCI-C5x (clear cell) | 3 | 36.5 | active |
| SMARCAD1 | Rucaparib | OCI-P5x (serous) | 1 | 48.5 | active |
| SMARCAD1 | Rucaparib | OCI-P5x (serous) | 2 | 60.9 | active |
| SMARCAD1 | Rucaparib | OCI-P5x (serous) | 3 | 51.3 | active |
| SMARCAD1 | Vehicle | OCI-C5x (clear cell) | 1 | 44.7 | active |
| SMARCAD1 | Vehicle | OCI-C5x (clear cell) | 2 | 37.9 | active |
| SMARCAD1 | Vehicle | OCI-C5x (clear cell) | 3 | 42.1 | active |
| SMARCAD1 | Vehicle | OCI-P5x (serous) | 1 | 47.1 | active |
| SMARCAD1 | Vehicle | OCI-P5x (serous) | 2 | 46.9 | active |
| SMARCAD1 | Vehicle | OCI-P5x (serous) | 3 | 53.8 | active |

7 consecutive records already listed, quoted:
| gene | rucaparib or vehicle | cell line | technical replicate | viability, normalised (%) | Outcome |
| --- | --- | --- | --- | --- | --- |
| STK10 | Vehicle | OCI-P5x (serous) | 2 | 45.1 | active |
| STK10 | Vehicle | OCI-P5x (serous) | 3 | 58.3 | active |
| TTF2 | Rucaparib | OCI-C5x (clear cell) | 1 | 68.7 | active |
| TTF2 | Rucaparib | OCI-C5x (clear cell) | 2 | 57.9 | active |
| TTF2 | Rucaparib | OCI-C5x (clear cell) | 3 | 51.4 | active |
| TTF2 | Rucaparib | OCI-P5x (serous) | 1 | 72.3 | active |
| TTF2 | Rucaparib | OCI-P5x (serous) | 2 | 62.1 | active |

More results follow:
| gene | rucaparib or vehicle | cell line | technical replicate | viability, normalised (%) | Outcome |
| --- | --- | --- | --- | --- | --- |
| ING1 | Rucaparib | OCI-C5x (clear cell) | 1 | 57.2 | active |
| ING1 | Rucaparib | OCI-C5x (clear cell) | 2 | 49.9 | active |
| ING1 | Rucaparib | OCI-C5x (clear cell) | 3 | 57.1 | active |
| ING1 | Rucaparib | OCI-P5x (serous) | 1 | 71.9 | active |
| ING1 | Rucaparib | OCI-P5x (serous) | 2 | 68.6 | active |
| ING1 | Rucaparib | OCI-P5x (serous) | 3 | 67 | active |
| ING1 | Vehicle | OCI-C5x (clear cell) | 1 | 60.1 | active |
| ING1 | Vehicle | OCI-C5x (clear cell) | 2 | 64.5 | active |
| ING1 | Vehicle | OCI-C5x (clear cell) | 3 | 43.5 | active |
| ING1 | Vehicle | OCI-P5x (serous) | 1 | 84.6 | inactive |
| ING1 | Vehicle | OCI-P5x (serous) | 2 | 87.5 | inactive |
| ING1 | Vehicle | OCI-P5x (serous) | 3 | 80.8 | inactive |
| PAF1 | Rucaparib | OCI-C5x (clear cell) | 1 | 48.8 | active |
| PAF1 | Rucaparib | OCI-C5x (clear cell) | 2 | 59.2 | active |
| PAF1 | Rucaparib | OCI-C5x (clear cell) | 3 | 53.2 | active |
| PAF1 | Rucaparib | OCI-P5x (serous) | 1 | 71.9 | active |
| PAF1 | Rucaparib | OCI-P5x (serous) | 2 | 55.2 | active |
| PAF1 | Rucaparib | OCI-P5x (serous) | 3 | 82 | inactive |
| PAF1 | Vehicle | OCI-C5x (clear cell) | 1 | 43.4 | active |
| PAF1 | Vehicle | OCI-C5x (clear cell) | 2 | 40.1 | active |
| PAF1 | Vehicle | OCI-C5x (clear cell) | 3 | 41.9 | active |
| PAF1 | Vehicle | OCI-P5x (serous) | 1 | 62.3 | active |
| PAF1 | Vehicle | OCI-P5x (serous) | 2 | 39.3 | active |
| PAF1 | Vehicle | OCI-P5x (serous) | 3 | 64.3 | active |
